Measurements reported in PubChem BioAssay AID1259254 (NCATS, 2017)
Assay: 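Genome-wide screen for genes that prevent DNA re-replication in cancer cells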 (primary screen). System: human HCT116 colorectal cancer cells. Reagent: single siRNA against human genes. Timing: 3 days. Measurement: 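Imaged Hoechst DNA stain sorts each cell into a cycle phase by DNA amount; per plate, G2 fraction set to 0% for non-targeting and 100% for GMNN siRNA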. Direction: G2 robust z-score: higher = more G2 cells, more excess DNA replication. Call rule: 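Active siRNAs have a G2 robust z of 5 or more median absolute deviations over the median, which in these data means about 38% or higher of GMNN control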.
The deposit covers about 59,000 reagents; below is an unselected part. Over the whole deposit, about 1,550 (2.6%) are marked active. 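G2 share is only a proxy for re-replication; each gene was hit by three separate siRNAs, and active genes were retested.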 Further read-outs or replicates are left out here. The record does not give: the amount of reagent.

target | PubChem SID | G2 robust z-score | Call
PKN2 | SID160714953 | -0.147 | inactive
PKN2 | SID160714954 | 0.516 | inactive
PKN2 | SID160714955 | -0.936 | inactive
SRM | SID160717334 | -0.719 | inactive
SRM | SID160717335 | 1.89 | inactive
SRM | SID160731788 | 0.717 | inactive
CTBP1 | SID160750124 | -0.905 | inactive
CTBP1 | SID160750135 | 1.77 | inactive
CTBP1 | SID160750148 | -1.22 | inactive
ADIRF | SID160729659 | -0.575 | inactive
ADIRF | SID160729660 | 1.66 | inactive
ADIRF | SID160732308 | -0.239 | inactive
PRRG1 | SID160715090 | 1.4 | inactive
PRRG1 | SID160715091 | 0.639 | inactive
PRRG1 | SID160715092 | -0.341 | inactive
RHPN2 | SID160753260 | 1.13 | inactive
RHPN2 | SID160753261 | 2.88 | inactive
RHPN2 | SID160753262 | 0.246 | inactive
ISCA2 | SID160732391 | 0.222 | inactive
ISCA2 | SID160756036 | 1.76 | inactive
ISCA2 | SID160756038 | 0.186 | inactive
SPART | SID160735472 | -0.748 | inactive
SPART | SID160735473 | 0.0722 | inactive
SPART | SID160735474 | 0.00902 | inactive
CIC | SID160735574 | -0.316 | inactive
CIC | SID160735575 | 0.71 | inactive
CIC | SID160735576 | -0.593 | inactive
KLHL34 | SID160762553 | -0.167 | inactive
KLHL34 | SID160762554 | 2.65 | inactive
KLHL34 | SID160762555 | -0.799 | inactive
NR1D1 | SID160722527 | 0.0228 | inactive
NR1D1 | SID160722528 | -0.328 | inactive
NR1D1 | SID160722529 | -0.011 | inactive
AK1 | SID160760502 | -1.61 | inactive
AK1 | SID160760604 | -1.29 | inactive
AK1 | SID160760711 | 0.553 | inactive

Reprinted from the entries so far (5 entries):
target | PubChem SID | G2 robust z-score | Call
KLHL34 | SID160762555 | -0.799 | inactive
NR1D1 | SID160722527 | 0.0228 | inactive
NR1D1 | SID160722528 | -0.328 | inactive
NR1D1 | SID160722529 | -0.011 | inactive
AK1 | SID160760502 | -1.61 | inactive

Further records:
target | PubChem SID | G2 robust z-score | Call
RIOX1 | SID160749220 | -1.1 | inactive
RIOX1 | SID160749221 | 0.186 | inactive
RIOX1 | SID160749222 | 0.544 | inactive
DDTL | SID160774555 | 0.445 | inactive
DDTL | SID160774556 | 3.09 | inactive
DDTL | SID160774557 | -0.287 | inactive
PCDHGA8 | SID160722868 | -0.286 | inactive
PCDHGA8 | SID160722869 | 1.23 | inactive
PCDHGA8 | SID160722870 | 5.12 | active
ST8SIA6 | SID160764049 | 3.14 | inactive
ST8SIA6 | SID160764051 | 3.73 | inactive
ST8SIA6 | SID160764052 | 1.39 | inactive
PLET1 | SID160765118 | -0.472 | inactive
PLET1 | SID160765119 | 1.51 | inactive
PLET1 | SID160765120 | -1.19 | inactive
PERM1 | SID160752726 | -0.516 | inactive
PERM1 | SID160752727 | 4.45 | inactive
PERM1 | SID160752728 | 0.724 | inactive
DBX2 | SID160767698 | 0.209 | inactive
DBX2 | SID160767699 | -0.177 | inactive
DBX2 | SID160767700 | 1.16 | inactive
RPS6KC1 | SID160738172 | -1.13 | inactive
RPS6KC1 | SID160738173 | -1.16 | inactive
RPS6KC1 | SID160738174 | 0.0854 | inactive
CEP55 | SID160743104 | -0.364 | inactive
CEP55 | SID160743105 | 1.74 | inactive
CEP55 | SID160743106 | 2.87 | inactive
H2AJ | SID160744308 | 0.394 | inactive
H2AJ | SID160744309 | -0.0838 | inactive
H2AJ | SID160744310 | 1.34 | inactive
LRR1 | SID160730574 | 1.64 | inactive
LRR1 | SID160756015 | 2.86 | inactive
LRR1 | SID160756016 | -0.945 | inactive
RRM2B | SID160731324 | -0.347 | inactive
RRM2B | SID160739594 | -0.671 | inactive
RRM2B | SID160739595 | 0.124 | inactive
MAP3K5 | SID160777143 | -0.962 | inactive
MAP3K5 | SID160777144 | -1.35 | inactive
MAP3K5 | SID160777145 | -0.966 | inactive
ADAMTS6 | SID160730121 | -0.672 | inactive
ADAMTS6 | SID160730122 | -0.381 | inactive
ADAMTS6 | SID160730123 | -0.979 | inactive
KRABD2 | SID160756227 | 1.26 | inactive
KRABD2 | SID160756228 | -0.138 | inactive
KRABD2 | SID160756229 | -0.945 | inactive
OR8B4 | SID160762796 | 1.68 | inactive
OR8B4 | SID160762797 | 0.712 | inactive
OR8B4 | SID160762798 | -0.42 | inactive
DNAJB11 | SID160741269 | -0.0847 | inactive
DNAJB11 | SID160741271 | 5.74 | active
DNAJB11 | SID160741272 | -0.396 | inactive
